Taken from: PubChem BioAssay AID602196 (INSERM, 2012)

Purpose: 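Knock-downs that protect lung cancer cells from cisplatin or sensitise them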
System: human A549 lung cancer cells
Reagent: siRNA pair against human genes
Timing: 48 h transfection before cisplatin; time from cisplatin to read-out not stated
Conditions: cisplatin at a dose killing half of control-siRNA cells; exact dose and duration not given
Measured: 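Shift in cisplatin death relative to control siRNA, from -50 (all cells die) to +50 (no cells die); siRNAs harmful on their own scored 0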
Direction: two-siRNA summed score (-2 to +2): higher = both siRNAs protect from cisplatin killing; -2 means both sensitise
Active means: 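siRNAs harmful alone (LDH or WST-1) get 0; others get +1 for less and -1 for more cisplatin killing; genes are active when the two siRNAs give the same sign, summing to ±2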
Calls: active = both siRNAs shift cisplatin killing the same way; inactive = no consistent shift, or siRNA harmful alone
Here is one part, drawn at random, of about 23,000 reagents. Of all reagents, 455 (2%) are marked active. 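Active includes both protection and sensitisation; some change values fall well beyond the stated -50 to +50 range.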 Entries without a mark were called inactive. Reagents against one gene are numbered here. Further read-outs or replicates are left out here. Not stated in the record: the amount of reagent.

CRYM #1
- two-siRNA summed score (-2 to +2): 0

CRYM #2
- two-siRNA summed score (-2 to +2): 0

DHRS13
- two-siRNA summed score (-2 to +2): 0

CDC123
- two-siRNA summed score (-2 to +2): -1

ACVR2A
- two-siRNA summed score (-2 to +2): 0

ANXA11
- two-siRNA summed score (-2 to +2): 0

LOC440469
- two-siRNA summed score (-2 to +2): 0

LOC127540
- two-siRNA summed score (-2 to +2): 0

LOC389069
- two-siRNA summed score (-2 to +2): 0

CYTH2
- two-siRNA summed score (-2 to +2): -1

LINC02381
- two-siRNA summed score (-2 to +2): 1

CDC50A
- two-siRNA summed score (-2 to +2): 0

CKAP4
- two-siRNA summed score (-2 to +2): -1

CES5A
- two-siRNA summed score (-2 to +2): -1

NUP35
- two-siRNA summed score (-2 to +2): 2 (active)

ACTN3
- two-siRNA summed score (-2 to +2): -1

FREM1
- two-siRNA summed score (-2 to +2): 0

CERS1
- two-siRNA summed score (-2 to +2): 0

DGCR6L
- two-siRNA summed score (-2 to +2): 0

LOC401945
- two-siRNA summed score (-2 to +2): 1

FGF14
- two-siRNA summed score (-2 to +2): 0
